PubChem BioAssay AID1259308, NCATS, 2017
Shown is an unselected part of about 59,000 reagents. Over the whole deposit, about 1,510 (2.6%) are marked active. 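Calls use total luciferase alone and ignore viability, so some active siRNAs may act by altering cell number.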 A number with no mark means an inactive call. Reagents against one gene are numbered here. Further read-outs or replicates are left out here.

- Test: 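Knock-downs that increase output of a recombinant reporter protein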 (primary screen)
- Cell system: human HEK293 embryonic kidney cells stably expressing firefly luciferase (HEK-CMV-Luc2-Hygro)
- Reagent: single siRNA against human genes, 0.8 pmol siRNA per well
- Time to read-out: 72 h
- Read-out: 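Reporter luminescence and viable-cell signal on separate replicate plates, given as percent of non-targeting control and median/MAD z-scores, plus per-cell luciferase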
- Direction: total luciferase, z-score and total luciferase, % of control: higher = more reporter protein produced; luciferase per cell, z-score: higher = more reporter output per viable cell
- Call rule: 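An siRNA counts as active if its total luciferase robust z-score exceeds 3; genes with two or more such siRNAs out of three were retested with fresh siRNAs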
- Meaning of the calls: active = raised luciferase; inactive = no rise

no.	Gene	reagent no.	total luciferase, z-score	total luciferase, % of control	luciferase per cell, z-score
1	ING2	1	-1.72	47.6	-0.766
2	ING2	2	0.354	88.9	-0.285
3	ING2	3	-1.4	54.1	-1.38
4	TSKS	1	0.979	101	2.64
5	TSKS	2	1.13	104	1.2
6	TSKS	3	-0.862	64.7	-1.03
7	FLVCR2	1	1.56	113	0.923
8	FLVCR2	2	2.36	129	1.73
9	FLVCR2	3	0.234	86.5	0.117
10	CRYAB	1	-0.691	68.1	-1.32
11	CRYAB	2	2.27	127	1.67
12	CRYAB	3	1.3	108	1.58
13	EPN3	1	1.1	104	0.529
14	EPN3	2	-0.0925	80	0.265
15	EPN3	3	1.97	121	1.98
16	DAB2IP	1	-0.604	69.9	-0.815
17	DAB2IP	2	-0.413	73.7	0.388
18	DAB2IP	3	1.74	117	1.52
19	TPR	1	-0.529	71.4	-0.776
20	TPR	2	1.31	108	0.349
21	TPR	3	-0.688	68.2	-1.22
22	DNAJC24	1	-1.01	61.7	1.44
23	DNAJC24	2	-0.113	79.6	-0.163
24	DNAJC24	3	-0.576	70.4	-0.114
25	ATP5MJ	1	2.33	128	2.5
26	ATP5MJ	2	-0.353	74.9	-0.249
27	ATP5MJ	3	0.313	88.1	0.396

Quoted from the listing (3 entries):
no.	Gene	reagent no.	total luciferase, z-score	total luciferase, % of control	luciferase per cell, z-score
20	TPR	2	1.31	108	0.349
21	TPR	3	-0.688	68.2	-1.22
22	DNAJC24	1	-1.01	61.7	1.44

The results go on:
no.	Gene	reagent no.	total luciferase, z-score	total luciferase, % of control	luciferase per cell, z-score
28	ZNF296	1	-0.469	72.5	-0.239
29	ZNF296	2	-1.29	56.3	-1.33
30	ZNF296	3	-1.73	47.5	-2.18
31	MDK	1	-0.181	78.3	-0.0928
32	MDK	2	-0.017	81.5	-0.422
33	MDK	3	0.0749	83.4	-0.225
34	LINC00683	1	0.878	99.3	1.54
35	LINC00683	2	0.286	87.6	0.424
36	LINC00683	3	0.663	95.1	0.966
37	HEMK2	1	-0.97	62.6	-0.0195
38	HEMK2	2	-0.501	71.9	-0.958
39	HEMK2	3	0.456	90.9	0.574
40	CNTN2	1	-0.459	72.8	-0.648
41	CNTN2	2	-1.44	53.2	-0.898
42	CNTN2	3	-1.63	49.5	-1.47
43	LGALS9	1	-1.01	61.8	-0.749
44	LGALS9	2	1.55	113	2.15
45	LGALS9	3	-1.19	58.2	-1.39
46	ARL2BP	1	1.22	106	0.832
47	ARL2BP	2	0.223	86.3	-0.102
48	ARL2BP	3	-1.96	42.9	-2.24
49	TBX5	1	-0.294	76	-0.325
50	TBX5	2	3.22 (active)	146	2.64
51	TBX5	3	1.03	102	0.924
52	CD244	1	-0.267	76.6	-0.367
53	CD244	2	-0.197	78	-0.791
54	CD244	3	-0.847	65	-0.266
55	PPP5C	1	-0.688	68.2	0.306
56	PPP5C	2	-0.63	69.3	-0.525
57	PPP5C	3	4.8 (active)	177	3.14
